# Assay results taken from publication PMC12334247.
# No constants are given. Whether binding was seen depends on the method and setting. For some of these results: Binding can be weak; no strength is given. Where a sequence is shown, tags or fusion partners need not be part of it.
# Key:
# Test in all cases: two-hybrid; yeast strain PJ694-a; fusions to AD (pDEST22) and BD (pDEST32); -Leu/-Trp selects co-transformation, -Leu/-Trp/-His/-Ade selects for strong interaction
# [1] = target: T1, ORC6 (origin recognition complex subunit 6), yeast two-hybrid fusion (Arabidopsis thaliana) (UniProt Q9ZVH3)
# T1 sequence: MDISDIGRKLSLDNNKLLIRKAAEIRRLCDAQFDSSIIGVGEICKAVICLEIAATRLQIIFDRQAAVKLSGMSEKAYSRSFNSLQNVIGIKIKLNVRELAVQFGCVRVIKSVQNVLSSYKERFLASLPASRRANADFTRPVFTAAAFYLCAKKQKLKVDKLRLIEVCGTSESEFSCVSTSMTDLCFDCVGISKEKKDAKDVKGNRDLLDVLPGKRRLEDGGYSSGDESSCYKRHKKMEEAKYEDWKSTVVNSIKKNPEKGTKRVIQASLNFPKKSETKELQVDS
# [2] = target: T2, ARIA, an ABAP1 homolog, yeast two-hybrid fusion (Arabidopsis thaliana) (UniProt B9DHT4)
# T2 sequence: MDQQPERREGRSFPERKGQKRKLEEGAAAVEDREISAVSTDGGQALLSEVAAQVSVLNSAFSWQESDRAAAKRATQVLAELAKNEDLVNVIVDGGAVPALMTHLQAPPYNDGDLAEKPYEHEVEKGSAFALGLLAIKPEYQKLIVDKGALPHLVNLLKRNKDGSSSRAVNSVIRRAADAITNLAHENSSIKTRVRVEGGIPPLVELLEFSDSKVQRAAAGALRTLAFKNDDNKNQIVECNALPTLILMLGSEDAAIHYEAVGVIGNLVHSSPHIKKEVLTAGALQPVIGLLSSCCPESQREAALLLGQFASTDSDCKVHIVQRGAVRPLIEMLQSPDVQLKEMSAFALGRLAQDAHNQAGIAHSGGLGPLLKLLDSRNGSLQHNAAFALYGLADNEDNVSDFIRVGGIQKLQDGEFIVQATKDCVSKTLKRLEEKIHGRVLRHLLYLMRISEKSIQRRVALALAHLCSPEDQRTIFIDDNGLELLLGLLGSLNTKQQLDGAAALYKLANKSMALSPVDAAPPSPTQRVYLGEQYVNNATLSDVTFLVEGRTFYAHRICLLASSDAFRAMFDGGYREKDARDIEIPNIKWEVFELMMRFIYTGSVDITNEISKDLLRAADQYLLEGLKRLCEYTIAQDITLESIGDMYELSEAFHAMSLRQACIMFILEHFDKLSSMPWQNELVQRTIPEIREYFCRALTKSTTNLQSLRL
# [3] = target: T3, Armadillo BTB Arabidopsis protein 1 (ABAP1), yeast two-hybrid fusion (Arabidopsis thaliana) (UniProt B7U179)
# T3 sequence: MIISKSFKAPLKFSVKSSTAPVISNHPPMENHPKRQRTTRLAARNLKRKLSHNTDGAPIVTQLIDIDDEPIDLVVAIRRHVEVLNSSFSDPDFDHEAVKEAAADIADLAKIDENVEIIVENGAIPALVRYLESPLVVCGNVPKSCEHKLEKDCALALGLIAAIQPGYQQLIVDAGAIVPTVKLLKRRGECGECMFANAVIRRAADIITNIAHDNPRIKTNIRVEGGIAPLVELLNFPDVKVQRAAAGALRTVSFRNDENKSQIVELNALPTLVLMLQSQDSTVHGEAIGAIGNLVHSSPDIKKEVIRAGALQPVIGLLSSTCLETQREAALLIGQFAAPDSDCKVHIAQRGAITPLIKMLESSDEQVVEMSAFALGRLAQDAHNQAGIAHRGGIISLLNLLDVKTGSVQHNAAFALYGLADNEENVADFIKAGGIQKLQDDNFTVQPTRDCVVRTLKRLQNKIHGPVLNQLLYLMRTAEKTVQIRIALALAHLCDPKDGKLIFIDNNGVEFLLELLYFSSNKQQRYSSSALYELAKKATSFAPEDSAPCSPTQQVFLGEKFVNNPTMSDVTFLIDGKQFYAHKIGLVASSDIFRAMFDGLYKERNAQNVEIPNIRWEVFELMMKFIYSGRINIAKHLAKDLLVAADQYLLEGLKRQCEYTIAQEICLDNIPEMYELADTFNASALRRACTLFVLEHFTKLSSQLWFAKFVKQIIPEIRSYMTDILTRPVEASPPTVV
# [4] = target: T4, KIN11 (SnRK1α2), yeast two-hybrid fusion (Arabidopsis thaliana) (UniProt P92958)
# T4 sequence: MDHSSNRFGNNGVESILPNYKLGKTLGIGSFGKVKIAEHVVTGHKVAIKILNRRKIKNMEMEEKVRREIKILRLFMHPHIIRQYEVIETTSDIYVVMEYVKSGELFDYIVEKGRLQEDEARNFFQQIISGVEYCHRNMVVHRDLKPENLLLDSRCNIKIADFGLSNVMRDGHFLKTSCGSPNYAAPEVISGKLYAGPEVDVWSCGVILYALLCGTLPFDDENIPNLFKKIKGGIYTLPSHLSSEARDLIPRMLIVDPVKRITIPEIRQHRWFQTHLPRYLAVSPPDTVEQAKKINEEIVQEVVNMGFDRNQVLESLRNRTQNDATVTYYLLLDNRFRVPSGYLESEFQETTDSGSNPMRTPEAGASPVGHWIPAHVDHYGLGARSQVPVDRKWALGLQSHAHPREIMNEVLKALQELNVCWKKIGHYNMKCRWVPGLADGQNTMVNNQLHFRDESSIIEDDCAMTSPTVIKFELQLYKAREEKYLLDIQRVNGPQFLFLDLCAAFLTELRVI
substance,measurement,setting,value
"ABAP1 interacting protein 10 (AIP10), yeast two-hybrid fusion (Arabidopsis thaliana)",binding,[1],no binding
same,binding,[2],no binding
same,binding,[3],binds
same,binding,[4],no binding
